# The entries are a selection whose mix differs from that of the whole data set. At the low end of the ranking the order means little.
# The chains behind the UniProt entries cited, without tags or fusion partners. Where a name states a change or a piece, a line headed by the entry shows the natural chain unless it says otherwise.
# UniProt P41161: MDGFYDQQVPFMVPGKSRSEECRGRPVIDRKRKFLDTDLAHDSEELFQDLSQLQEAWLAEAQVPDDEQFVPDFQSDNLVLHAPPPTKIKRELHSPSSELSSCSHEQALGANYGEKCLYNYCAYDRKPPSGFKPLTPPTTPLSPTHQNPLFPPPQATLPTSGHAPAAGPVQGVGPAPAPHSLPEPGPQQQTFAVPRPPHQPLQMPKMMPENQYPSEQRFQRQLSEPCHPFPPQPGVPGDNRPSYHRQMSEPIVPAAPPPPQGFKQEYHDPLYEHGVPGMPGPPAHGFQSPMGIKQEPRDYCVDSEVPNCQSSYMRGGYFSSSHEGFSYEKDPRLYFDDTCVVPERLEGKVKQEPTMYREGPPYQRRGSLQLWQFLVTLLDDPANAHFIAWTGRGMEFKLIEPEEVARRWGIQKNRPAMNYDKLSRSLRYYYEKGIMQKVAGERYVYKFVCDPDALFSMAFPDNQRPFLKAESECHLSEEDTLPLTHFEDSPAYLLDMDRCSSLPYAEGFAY
# UniProt Q99607: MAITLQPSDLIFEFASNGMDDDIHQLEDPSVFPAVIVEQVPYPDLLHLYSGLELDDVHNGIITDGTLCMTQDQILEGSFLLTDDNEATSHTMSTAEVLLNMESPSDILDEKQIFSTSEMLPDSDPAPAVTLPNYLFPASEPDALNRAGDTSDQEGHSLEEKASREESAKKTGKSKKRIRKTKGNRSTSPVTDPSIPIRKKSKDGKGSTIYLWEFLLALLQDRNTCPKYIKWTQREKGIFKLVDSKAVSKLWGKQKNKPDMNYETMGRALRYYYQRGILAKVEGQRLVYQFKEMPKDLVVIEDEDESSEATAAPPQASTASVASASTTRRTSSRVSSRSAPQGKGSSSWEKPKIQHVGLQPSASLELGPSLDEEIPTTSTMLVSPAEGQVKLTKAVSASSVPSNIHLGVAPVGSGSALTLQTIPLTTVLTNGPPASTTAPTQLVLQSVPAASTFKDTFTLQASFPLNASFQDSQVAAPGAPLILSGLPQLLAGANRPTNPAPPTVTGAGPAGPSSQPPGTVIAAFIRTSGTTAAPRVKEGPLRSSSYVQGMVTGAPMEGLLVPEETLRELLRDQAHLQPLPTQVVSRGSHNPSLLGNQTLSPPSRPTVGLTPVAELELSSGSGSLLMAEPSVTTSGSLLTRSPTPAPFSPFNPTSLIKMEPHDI
# UniProt Q01892: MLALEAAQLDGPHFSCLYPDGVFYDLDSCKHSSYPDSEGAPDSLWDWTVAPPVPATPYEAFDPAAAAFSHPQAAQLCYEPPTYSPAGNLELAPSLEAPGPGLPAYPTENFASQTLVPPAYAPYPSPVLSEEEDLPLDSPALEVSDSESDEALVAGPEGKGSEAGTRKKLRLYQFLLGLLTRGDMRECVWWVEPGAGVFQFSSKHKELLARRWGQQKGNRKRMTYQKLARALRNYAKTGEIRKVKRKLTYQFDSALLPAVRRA
# Assays:
# Test in all cases: DAPPL (digital affinity profiling via proximity ligation, sequencing)
# Conditions in all cases: 10 mM Tris-HCl pH 7.5, 50 mM NaCl, 1 mM DTT, 4% glycerol, room temperature, 30 min; GST-TFs on glutathione beads, 16-mer random dsDNA library, 0.1% …; high values mean tight binding; double strand, one strand shown; scale: fold enrichment (6-mer frequency, TF over GST control)
# ETV5 = ETV5 (UniProt P41161)
# ETV2 = target: T1, ETV2 (UniProt O00321)
# T1 sequence: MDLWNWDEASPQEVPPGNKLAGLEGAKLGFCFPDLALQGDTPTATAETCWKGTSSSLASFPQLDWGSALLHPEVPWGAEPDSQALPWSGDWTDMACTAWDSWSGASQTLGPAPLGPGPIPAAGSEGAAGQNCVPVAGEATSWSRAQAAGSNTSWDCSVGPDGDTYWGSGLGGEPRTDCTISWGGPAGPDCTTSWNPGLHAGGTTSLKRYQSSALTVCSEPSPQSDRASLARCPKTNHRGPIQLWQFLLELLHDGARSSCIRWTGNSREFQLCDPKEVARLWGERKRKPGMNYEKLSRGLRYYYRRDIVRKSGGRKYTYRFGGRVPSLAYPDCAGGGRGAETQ
# EHF = target: T2, EHF (UniProt Q9NZC4)
# T2 sequence: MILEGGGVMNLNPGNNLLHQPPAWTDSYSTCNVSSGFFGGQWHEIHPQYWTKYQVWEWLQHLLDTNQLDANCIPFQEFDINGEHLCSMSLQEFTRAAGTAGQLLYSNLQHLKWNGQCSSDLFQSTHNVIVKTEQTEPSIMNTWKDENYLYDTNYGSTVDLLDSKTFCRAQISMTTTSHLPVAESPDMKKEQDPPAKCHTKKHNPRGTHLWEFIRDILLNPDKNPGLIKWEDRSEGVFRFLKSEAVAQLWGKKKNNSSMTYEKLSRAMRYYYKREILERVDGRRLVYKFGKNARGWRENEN
# ELF4 = ELF4 (UniProt Q99607)
# SPIB = SPIB (UniProt Q01892)
# ETV3L = target: T3, ETV3L (UniProt Q6ZN32)
# T3 sequence: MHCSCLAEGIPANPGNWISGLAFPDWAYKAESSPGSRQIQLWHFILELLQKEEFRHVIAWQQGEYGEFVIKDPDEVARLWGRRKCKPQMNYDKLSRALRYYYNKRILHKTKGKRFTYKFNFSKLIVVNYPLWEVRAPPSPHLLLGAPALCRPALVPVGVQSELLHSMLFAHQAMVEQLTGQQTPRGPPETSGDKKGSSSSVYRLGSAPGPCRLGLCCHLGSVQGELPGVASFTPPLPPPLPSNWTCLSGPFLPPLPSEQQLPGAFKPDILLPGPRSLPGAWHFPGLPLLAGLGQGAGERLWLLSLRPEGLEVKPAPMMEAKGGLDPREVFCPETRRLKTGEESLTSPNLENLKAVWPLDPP
sequence,measurement,setting,value
AAATAC,binding signal,ETV5,1.43
same,binding signal,ETV2,1.51
GGATTT,binding signal,EHF,1.24
same,binding signal,ETV5,1.33
same,binding signal,ELF4,1.26
CTACGC,binding signal,EHF,1.56
same,binding signal,ETV5,1.6
same,binding signal,ELF4,1.51
TCGACG,binding signal,ETV5,1.17
same,binding signal,ETV2,1.18
TGACCA,binding signal,ETV5,1.23
same,binding signal,ETV2,1.17
TTCTGA,binding signal,SPIB,1.32
same,binding signal,ETV5,1.23
same,binding signal,ELF4,1.45
CTTCGA,binding signal,SPIB,1.31
same,binding signal,ETV5,1.4
same,binding signal,ELF4,1.4
CATGAT,binding signal,ETV5,1.08
same,binding signal,ETV2,0.906
CGTACA,binding signal,ETV5,1.22
same,binding signal,ETV2,1.36
AGCATT,binding signal,ETV5,1.03
same,binding signal,ETV2,1.06
TTTAAC,binding signal,ETV5,1.12
same,binding signal,ETV2,1.24
ATCTGC,binding signal,ETV5,1.46
same,binding signal,ETV2,1.44
CTCCAT,binding signal,ETV5,1.43
same,binding signal,ETV2,1.46
TGGCTG,binding signal,EHF,1.23
same,binding signal,SPIB,1.01
same,binding signal,ETV5,1.08
same,binding signal,ELF4,0.971
ATAATA,binding signal,EHF,1.24
same,binding signal,ETV5,1.18
same,binding signal,ELF4,1.14
TATGTG,binding signal,SPIB,1.05
same,binding signal,ETV5,1.13
same,binding signal,ELF4,1.13
AACTTT,binding signal,ETV5,1.19
same,binding signal,ETV2,1.3
CTGATT,binding signal,ETV5,1.25
same,binding signal,ETV2,1.21
AACTGG,binding signal,ETV5,1.21
same,binding signal,ETV2,1.31
AGTAAT,binding signal,ETV5,1.12
same,binding signal,ETV2,1.24
GTTATG,binding signal,EHF,1.2
same,binding signal,ETV5,1.14
same,binding signal,ELF4,1.1
AACTAC,binding signal,ETV5,1.38
same,binding signal,ETV2,1.42
ATAGGT,binding signal,ETV5,1.08
same,binding signal,ETV2,1.11
CGTTAT,binding signal,ETV5,1.15
same,binding signal,ETV2,1.21
TATGCA,binding signal,EHF,1.12
same,binding signal,SPIB,1.25
same,binding signal,ETV5,1.18
same,binding signal,ELF4,1.27
AGCTAG,binding signal,SPIB,0.997
same,binding signal,ETV5,0.971
same,binding signal,ELF4,1.05
GGGCTC,binding signal,ETV5,1.18
same,binding signal,ETV2,0.912
GAATAT,binding signal,ETV5,1.07
same,binding signal,ETV2,0.97
GAAACT,binding signal,ETV5,1.28
same,binding signal,ETV2,1.12
CCTTAT,binding signal,ETV5,1.41
same,binding signal,ETV2,1.39
GCTTCC,binding signal,ETV5,3.97
same,binding signal,ETV2,3.44
CATTGT,binding signal,ETV5,1.19
same,binding signal,ETV2,1.11
TGCTCG,binding signal,ETV5,1.31
same,binding signal,ETV2,1.21
CGCTAA,binding signal,EHF,0.937
same,binding signal,SPIB,0.953
same,binding signal,ETV5,0.892
same,binding signal,ELF4,0.943
ATCGTT,binding signal,EHF,1
same,binding signal,SPIB,0.994
same,binding signal,ETV5,1
same,binding signal,ELF4,1.04
AAACTG,binding signal,SPIB,1.1
same,binding signal,ETV5,1.09
same,binding signal,ELF4,1.1
TCAGCT,binding signal,ETV5,0.981
same,binding signal,ETV2,1.11
GACATT,binding signal,SPIB,1.16
same,binding signal,ETV5,1.17
same,binding signal,ELF4,1.14
TAGAAA,binding signal,ETV5,1.03
same,binding signal,ETV2,0.989
AAGGTT,binding signal,ETV5,1.01
same,binding signal,ETV2,0.894
same,binding signal,ETV3L,0.993
CTTTGT,binding signal,ETV5,1.3
same,binding signal,ETV2,1.03
ACCAAA,binding signal,ETV5,1.03
same,binding signal,ETV2,1.14
same,binding signal,ETV3L,0.991
ATAACC,binding signal,ETV5,1.21
same,binding signal,ETV2,1.05
GGTAAC,binding signal,ETV5,0.968
same,binding signal,ETV2,0.974
TATGTT,binding signal,ETV5,1.15
same,binding signal,ETV2,1.08
same,binding signal,ETV3L,1.2
TTGACT,binding signal,ETV5,1.13
same,binding signal,ETV2,1.27
CGAACT,binding signal,ETV5,1.19
same,binding signal,ETV2,0.996
AAACGA,binding signal,ETV5,1.1
same,binding signal,ETV2,1.1
same,binding signal,ETV3L,0.994
CTTACA,binding signal,ETV5,1.31
same,binding signal,ETV2,1.28
same,binding signal,ETV3L,1.26
TATAAT,binding signal,ETV5,1.17
same,binding signal,ETV2,1.3
TGTTTA,binding signal,ETV5,1.19
same,binding signal,ETV2,1.04
TGGTCA,binding signal,ETV5,1.02
same,binding signal,ETV2,0.888
same,binding signal,ETV3L,1.1
TTGCCA,binding signal,ETV5,0.987
same,binding signal,ETV2,0.992
same,binding signal,ETV3L,1
TTCATG,binding signal,ETV5,1.27
same,binding signal,ETV2,1.26
same,binding signal,ETV3L,1.33
TCCGTC,binding signal,ETV5,1.31
same,binding signal,ETV2,1.35
CAAGCA,binding signal,ETV5,1.17
same,binding signal,ETV2,0.997
same,binding signal,ETV3L,1.17
AAAGTT,binding signal,ETV5,1.16
same,binding signal,ETV2,0.991
TGGTTG,binding signal,ETV5,0.96
same,binding signal,ETV2,0.879
same,binding signal,ETV3L,1.03
TCCATA,binding signal,ETV5,1.3
same,binding signal,ETV2,1.19
same,binding signal,ETV3L,1.27
AATCTA,binding signal,ETV5,1.12
same,binding signal,ETV2,1.09
CTATGC,binding signal,ETV5,1.38
same,binding signal,ETV2,1.55
CAATTC,binding signal,ETV5,1.37
same,binding signal,ETV2,1.39
GTTCAA,binding signal,ETV5,1.14
same,binding signal,ETV2,1.05
AGTTTT,binding signal,ETV5,0.991
same,binding signal,ETV2,0.909
same,binding signal,ETV3L,0.943
CACTAT,binding signal,ETV5,1.2
same,binding signal,ETV2,1.09
CTCGAA,binding signal,ETV5,1.2
same,binding signal,ETV2,1.16
CCCTTA,binding signal,ETV5,1.28
same,binding signal,ETV2,1.41
same,binding signal,ETV3L,1.41
ACGCCT,binding signal,ETV5,1.2
same,binding signal,ETV2,1.29
GAATTG,binding signal,ETV5,1.18
same,binding signal,ETV2,0.897
ACTACG,binding signal,ETV5,1.27
same,binding signal,ETV2,1.33
TTCGCG,binding signal,ETV5,1.04
same,binding signal,ETV2,1.2
CATTTT,binding signal,ETV5,1.23
same,binding signal,ETV2,1.35
ATTTGC,binding signal,ETV5,1.4
same,binding signal,ETV2,1.23
same,binding signal,ETV3L,1.26
AAAGCA,binding signal,ETV5,1.06
same,binding signal,ETV2,1.11
TAGATG,binding signal,ETV5,1.22
same,binding signal,ETV2,1.37
CGCACT,binding signal,ETV5,1.28
same,binding signal,ETV2,1.29
GCTTCT,binding signal,ETV5,1.57
same,binding signal,ETV2,1.46
ATTCAA,binding signal,ETV5,1.32
same,binding signal,ETV2,1.38
AACTCA,binding signal,ETV5,1.25
same,binding signal,ETV2,1.22
same,binding signal,ETV3L,1.18
TCAACA,binding signal,EHF,1.05
same,binding signal,ETV5,1.04
same,binding signal,ETV2,0.95
GTTTGC,binding signal,EHF,1.11
same,binding signal,ETV5,0.977
same,binding signal,ETV2,0.991
TGGCGT,binding signal,EHF,0.906
same,binding signal,SPIB,0.942
same,binding signal,ETV5,0.941
same,binding signal,ETV2,1.05
same,binding signal,ETV3L,0.996
CTGCAT,binding signal,EHF,1.47
same,binding signal,ETV5,1.46
same,binding signal,ETV2,1.28
GACGAC,binding signal,SPIB,0.909
same,binding signal,ETV5,0.982
same,binding signal,ETV2,0.962
GCTGCC,binding signal,EHF,1.24
same,binding signal,ETV5,1.04
same,binding signal,ETV2,0.919
same,binding signal,ETV3L,1.03
GGATCT,binding signal,EHF,0.97
same,binding signal,SPIB,1.02
same,binding signal,ETV5,0.997
same,binding signal,ETV2,0.962
TGGGCA,binding signal,EHF,0.954
same,binding signal,SPIB,0.984
same,binding signal,ETV5,1.04
same,binding signal,ETV2,0.818
CGCCAT,binding signal,SPIB,0.984
same,binding signal,ETV5,0.98
same,binding signal,ETV2,0.866
same,binding signal,ETV3L,1.08
GCGTCC,binding signal,EHF,1.22
same,binding signal,SPIB,1.3
same,binding signal,ETV5,1.16
same,binding signal,ETV2,1.08
GCTTTT,binding signal,EHF,0.99
same,binding signal,ETV5,1.09
same,binding signal,ETV2,0.97
GATGGG,binding signal,EHF,1.02
same,binding signal,ETV5,0.929
same,binding signal,ETV2,0.94
same,binding signal,ETV3L,1.02
CTCACA,binding signal,EHF,1.42
same,binding signal,ETV5,1.31
same,binding signal,ETV2,1.35
same,binding signal,ETV3L,1.38
TGCCGG,binding signal,EHF,1.03
same,binding signal,ETV5,1.04
same,binding signal,ETV2,0.889
same,binding signal,ETV3L,0.954

# From PMC7862700
